Reference: PMC5969521, “Actin-related proteins regulate the RSC chromatin remodeler by weakening intramolecular interactions of the Sth1 ATPase” (Communications Biology, 2018)
pKd: −log10 of the molar value. The exact form of at least one protein or probe is not confirmed. The comparison behind a weaker result is the experiment's own reference, which may not be listed here. For part of these data: At least one verdict was read from the data and is not stated in words by the source. For part of these data: Tags and fusion partners may be left off the protein sequences shown.

How the values were obtained:
[1] = test system: Rtt102 + Arp7 + Arp9 + Sth1(301-1097); assay: EMSA; settings: single slow band, EMSA: 20 mM HEPES pH 7.5, 50 mM NaCl, 1 mM MgCl2, 5% glycerol, 1 mM DTT, 0.1 mg/mL BSA, 1 mM ADP or AMPPNP, room temperature, recombinant protein
[2] = biological target: T1, Sth1(388-1097) (UniProt P32597); assay: fluorescence anisotropy; settings: Anisotropy: 20 mM HEPES pH 7.5, 50 mM NaCl, 2.5 mM MgCl2, 5% glycerol, 1 mM DTT, 0.1 mg/mL BSA, 1 mM AMPPNP or ADP, 50 nM DNA, 20 C, recombinant protein, residues 388-1097, label: 5'-fluorescein
T1 sequence (looked up): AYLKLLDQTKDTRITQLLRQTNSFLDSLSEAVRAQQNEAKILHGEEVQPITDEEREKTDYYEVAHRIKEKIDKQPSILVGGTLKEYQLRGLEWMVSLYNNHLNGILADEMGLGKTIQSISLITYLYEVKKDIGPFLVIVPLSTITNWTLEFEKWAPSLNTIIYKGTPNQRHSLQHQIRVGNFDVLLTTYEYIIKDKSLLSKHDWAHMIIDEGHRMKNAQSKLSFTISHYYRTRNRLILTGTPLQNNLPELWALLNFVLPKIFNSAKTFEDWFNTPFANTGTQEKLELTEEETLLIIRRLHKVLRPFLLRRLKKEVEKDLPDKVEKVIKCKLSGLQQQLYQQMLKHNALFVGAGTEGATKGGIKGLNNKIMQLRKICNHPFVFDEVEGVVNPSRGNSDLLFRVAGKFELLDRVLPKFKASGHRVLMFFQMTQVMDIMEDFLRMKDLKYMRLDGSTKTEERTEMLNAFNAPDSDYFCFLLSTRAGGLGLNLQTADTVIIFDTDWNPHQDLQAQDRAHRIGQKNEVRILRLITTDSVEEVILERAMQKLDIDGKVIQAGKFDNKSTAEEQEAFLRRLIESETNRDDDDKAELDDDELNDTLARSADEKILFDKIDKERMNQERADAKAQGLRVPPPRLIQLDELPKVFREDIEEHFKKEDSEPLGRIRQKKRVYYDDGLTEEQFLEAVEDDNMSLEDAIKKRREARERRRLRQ

[3] = biological target: T2, Sth1(365-1097) (UniProt P32597); assay: fluorescence anisotropy; settings: Anisotropy: 20 mM HEPES pH 7.5, 50 mM NaCl, 2.5 mM MgCl2, 5% glycerol, 1 mM DTT, 0.1 mg/mL BSA, 1 mM AMPPNP or ADP, 50 nM DNA, 20 C, recombinant protein, residues 365-1097, label: 5'-fluorescein
T2 sequence (looked up): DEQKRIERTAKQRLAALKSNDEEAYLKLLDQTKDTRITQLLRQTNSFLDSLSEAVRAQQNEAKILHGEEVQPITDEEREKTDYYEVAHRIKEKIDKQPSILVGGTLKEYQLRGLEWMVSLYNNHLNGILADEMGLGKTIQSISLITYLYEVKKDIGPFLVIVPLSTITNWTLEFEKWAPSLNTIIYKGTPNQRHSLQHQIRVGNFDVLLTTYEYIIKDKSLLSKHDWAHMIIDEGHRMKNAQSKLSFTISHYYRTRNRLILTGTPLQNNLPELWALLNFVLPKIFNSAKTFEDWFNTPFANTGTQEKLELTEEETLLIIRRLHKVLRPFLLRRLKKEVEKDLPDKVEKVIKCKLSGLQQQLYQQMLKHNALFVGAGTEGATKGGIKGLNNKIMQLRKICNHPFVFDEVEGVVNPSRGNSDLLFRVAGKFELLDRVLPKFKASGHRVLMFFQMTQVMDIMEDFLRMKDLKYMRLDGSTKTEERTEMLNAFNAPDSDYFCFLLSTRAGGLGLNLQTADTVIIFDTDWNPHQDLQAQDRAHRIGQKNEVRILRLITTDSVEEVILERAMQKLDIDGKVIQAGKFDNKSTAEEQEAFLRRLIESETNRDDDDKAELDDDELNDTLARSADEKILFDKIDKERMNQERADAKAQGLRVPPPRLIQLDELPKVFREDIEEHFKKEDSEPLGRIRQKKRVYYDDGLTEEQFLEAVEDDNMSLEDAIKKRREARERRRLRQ

[4] = test system: Arp7 + Arp9 + Sth1(301-1097); assay: fluorescence anisotropy; settings: 1 mM ADP, Kd only in figure; Anisotropy: 20 mM HEPES pH 7.5, 50 mM NaCl, 2.5 mM MgCl2, 5% glycerol, 1 mM DTT, 0.1 mg/mL BSA, 1 mM AMPPNP or ADP, 50 nM DNA …; recombinant protein; label: 5'-fluorescein
[5] = biological target: T3, Sth1(301-1097) (UniProt P32597); assay: fluorescence anisotropy; settings: 1 mM ADP, weaker than with AMPPNP, Kd only in figure; Anisotropy: 20 mM HEPES pH 7.5, 50 mM NaCl, 2.5 mM MgCl2, 5% glycerol, 1 mM DTT, 0.1 mg/mL BSA, 1 mM AMPPNP or ADP, 50 nM DNA, 20 C; recombinant protein; residues 301-1097; label: 5'-fluorescein
T3 sequence (looked up): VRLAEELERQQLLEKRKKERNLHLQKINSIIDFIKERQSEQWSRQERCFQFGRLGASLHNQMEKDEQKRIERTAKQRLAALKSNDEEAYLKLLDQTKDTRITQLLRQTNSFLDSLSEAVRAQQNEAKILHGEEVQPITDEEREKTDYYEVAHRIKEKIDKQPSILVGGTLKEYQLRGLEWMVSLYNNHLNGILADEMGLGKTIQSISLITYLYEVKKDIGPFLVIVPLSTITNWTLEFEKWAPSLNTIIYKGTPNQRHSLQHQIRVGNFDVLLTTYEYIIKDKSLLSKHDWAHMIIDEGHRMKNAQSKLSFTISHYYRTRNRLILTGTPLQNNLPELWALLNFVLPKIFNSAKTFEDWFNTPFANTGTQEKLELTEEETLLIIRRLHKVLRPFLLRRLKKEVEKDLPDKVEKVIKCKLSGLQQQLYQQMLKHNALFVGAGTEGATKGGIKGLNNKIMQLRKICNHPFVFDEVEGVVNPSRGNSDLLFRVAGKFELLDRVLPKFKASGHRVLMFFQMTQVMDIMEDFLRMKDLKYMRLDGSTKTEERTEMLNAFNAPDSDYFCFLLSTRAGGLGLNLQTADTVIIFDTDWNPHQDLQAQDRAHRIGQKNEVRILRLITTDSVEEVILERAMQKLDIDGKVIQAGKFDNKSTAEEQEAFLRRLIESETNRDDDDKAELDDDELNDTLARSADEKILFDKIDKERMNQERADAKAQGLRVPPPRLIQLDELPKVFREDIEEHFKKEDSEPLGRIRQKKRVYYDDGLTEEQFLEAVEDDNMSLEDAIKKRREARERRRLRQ

[6] = test system: Rtt102 + Arp7 + Arp9 + Sth1(301-1097); assay: fluorescence anisotropy; settings: 1 mM ADP, Kd only in figure; Anisotropy: 20 mM HEPES pH 7.5, 50 mM NaCl, 2.5 mM MgCl2, 5% glycerol, 1 mM DTT, 0.1 mg/mL BSA, 1 mM AMPPNP or ADP, 50 nM DNA …; recombinant protein; label: 5'-fluorescein
[7] = 1 mM ADP, weaker than with AMPPNP, Kd only in figure

| Sequence | binding result ([1]; 1 mM ADP) | binding result ([1]; 1 mM AMPPNP) | binding result [2, 7] | pKd ([2]; 1 mM AMPPNP) | binding result [3, 7] | pKd ([3]; 1 mM AMPPNP) | binding result [4] | binding result [5] | binding result [6] |
| --- | --- | --- | --- | --- | --- | --- | --- | --- | --- |
| TCCATGTCCATGGATACGTGG / TCCACGTATCCATGGACATGGA [unlabeled DNA duplex] | binds more weakly | binds more weakly |  |  |  |  |  |  |  |
| TCCATGTCCATGGATACGTGG / TCCACGTATCCATGGACATGGA [fluorescein DNA duplex] |  |  | binds more weakly | 5.88 | binds more weakly | 6.08 | binds more weakly | binds more weakly | binds more weakly |
